From patent US4261883A (priority 1979, dated 1981)
At least one peptide structure holds a part that was inferred or is arguable (an end, a ring closure or a residue). Where a SMILES comes first, the peptide text is derived from it. [ ]: non-standard residue; d: D form. The star is where a group is joined. NHPhenethyl = c1ccc(CCN*)cc1

test system: guinea pig ileum; assay: guinea pig ileum test (inhibition of voltage induced contractions); format: cell-based; details: read-out: I.D.50 in the guinea pig ileum test

Compound | IC50 [nM]
C[C@@H](NC(=O)[C@@H](N)Cc1ccc(O)cc1)C(=O)NCC(=O)NCCc1ccccc1 [TAG--NH(CH2)2 C6 H5] (H-Tyr-[dA]-Gly-NHPhenethyl) | 820
C[C@@H](NC(=O)[C@@H](N)Cc1ccc(O)cc1)C(=O)NCC(=O)NCCCc1ccc(N=[N+]=[N-])cc1 [TAG--NH(CH2)3 C6 H4 --p-N3] | 27000
C[C@@H](NC(=O)[C@@H](N)Cc1ccc(O)cc1)C(=O)NCC(=O)N[C@@H](Cc1ccccc1)C(=O)NCCCc1ccc(N=[N+]=[N-])cc1 [TAGP--NH(CH2)3 C6 H4 --p-N3] | 28
